Not every entry of the source has a single result; some have several. They are shown here; other results are not. The source may hold further records. Values that stand side by side do not match, cause unknown; they may come from other doses, times, organisms or constructs than stated.
Molecular target: human 5HT1A receptor (Homo sapiens, UniProt P08908)
Assay: [35S]GTPγS binding for 5-HT1A receptor inhibition (antagonist mode)
Conditions: Example 78, HEK293 membranes, antagonist mode with serotonin 100 nM, <5 = not active at up to 10 μM
Method: Compounds showing affinity at the 5-HT1A receptor were tested for functional agonism and antagonism in a [^35S]GTPγS (guanine triphosphate (non-hydrolysable, labelled with ^35S) binding assay on membranes of HEK293 cells permanently transfected with human 5HT1A receptor (Perkin Elmer, USA).
Frozen membranes were thawed, briefly homogenized and were diluted in incubation buffer, 100 mM NaCl, 0.3 mM MgCl2 and 10 μM guanine diphosphate (GDP), pH 7.4-7.5) supplemented with 10 μg/ml saponin. Assay mixtures contained 10 μg of membrane protein and test compound, buffer, or control agonist (serotonin, 10 μM). For the antagonistic assay, control agonist was present in all wells containing compound at a sub-maximal concentration (serotonin, 100 nM). After 20 minutes pre-incubation at 37° C., [^35S]GTPγS was added to a final concentration of 0.25 nM, briefly shaken and further incubated for another 20 minutes. Reactions were terminated by rapid vacuum filtration through GF/B unifilter plates using a Packard Harvester. Filters were washed three times with wash buffer (10 mM NaH2PO4, 10 mM Na2HPO4, pH 7.4), dried overnight and bound counts were measured in a Topcount Scintillation Counter in the presence of Microscint O. % Specific Binding was calculated and curves were plotted with help of in house software where pIC50 values were determined and Kb values were calculated.

Amino acid sequences for entries named in this document (tags omitted).
UniProt P08908, whole entry: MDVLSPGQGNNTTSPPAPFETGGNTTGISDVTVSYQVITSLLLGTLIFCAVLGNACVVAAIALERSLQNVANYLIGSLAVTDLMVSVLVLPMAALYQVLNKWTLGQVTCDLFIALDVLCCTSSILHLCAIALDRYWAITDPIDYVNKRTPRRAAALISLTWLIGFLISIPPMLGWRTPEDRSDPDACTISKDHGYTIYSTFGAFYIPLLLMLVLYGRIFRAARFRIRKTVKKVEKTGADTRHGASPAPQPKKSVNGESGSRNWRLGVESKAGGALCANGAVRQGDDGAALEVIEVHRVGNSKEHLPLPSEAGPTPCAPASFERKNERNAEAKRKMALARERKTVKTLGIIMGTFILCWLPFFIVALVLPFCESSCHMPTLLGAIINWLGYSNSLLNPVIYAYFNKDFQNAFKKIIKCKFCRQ

Cc1cc2c(OC[C@@H](O)CN3C[C@@H]4CC=CC[C@H]3CN4c3ccc4ccccc4c3)cccc2[nH]1
h5HT1A Antagonist pIC50: 6.18 and 5.72

Reference: patent US8530475B2, “Bridged aryl piperazines derivatives useful for the treatment of CNS, GI-urinary and reproductive disorders” (Janssen Pharmaceutica NV, priority 2006, dated 2013)
